Measured values taken from article PMC11610139.
Results are given in words; binding and its absence hold for the method and conditions named. Binding seen in cells or lysates may run through a third protein. Some entries that bind do so weakly or less than the wild type.

Amino acid sequences for entries named in this document (tags omitted). Residues count along the entry.
UniProt P05556: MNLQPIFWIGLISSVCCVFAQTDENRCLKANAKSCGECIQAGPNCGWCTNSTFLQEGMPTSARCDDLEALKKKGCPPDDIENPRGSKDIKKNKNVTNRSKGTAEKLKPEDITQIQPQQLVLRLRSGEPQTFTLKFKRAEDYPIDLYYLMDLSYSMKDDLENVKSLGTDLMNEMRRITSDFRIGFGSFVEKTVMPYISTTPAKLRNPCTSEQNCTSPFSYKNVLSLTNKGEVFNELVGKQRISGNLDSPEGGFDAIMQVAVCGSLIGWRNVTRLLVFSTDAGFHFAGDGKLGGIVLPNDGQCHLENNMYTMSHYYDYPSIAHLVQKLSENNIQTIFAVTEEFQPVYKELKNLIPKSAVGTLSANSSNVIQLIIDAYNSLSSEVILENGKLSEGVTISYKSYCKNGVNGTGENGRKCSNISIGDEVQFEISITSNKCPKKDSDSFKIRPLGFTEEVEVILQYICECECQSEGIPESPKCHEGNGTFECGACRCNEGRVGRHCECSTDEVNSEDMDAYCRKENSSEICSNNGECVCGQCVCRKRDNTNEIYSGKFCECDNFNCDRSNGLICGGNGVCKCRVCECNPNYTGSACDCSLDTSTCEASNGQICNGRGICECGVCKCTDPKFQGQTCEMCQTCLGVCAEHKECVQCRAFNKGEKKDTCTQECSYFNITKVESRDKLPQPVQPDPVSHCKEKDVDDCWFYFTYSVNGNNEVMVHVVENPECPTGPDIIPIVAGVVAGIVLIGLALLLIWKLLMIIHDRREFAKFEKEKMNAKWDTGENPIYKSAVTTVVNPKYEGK
UniProt Q13263: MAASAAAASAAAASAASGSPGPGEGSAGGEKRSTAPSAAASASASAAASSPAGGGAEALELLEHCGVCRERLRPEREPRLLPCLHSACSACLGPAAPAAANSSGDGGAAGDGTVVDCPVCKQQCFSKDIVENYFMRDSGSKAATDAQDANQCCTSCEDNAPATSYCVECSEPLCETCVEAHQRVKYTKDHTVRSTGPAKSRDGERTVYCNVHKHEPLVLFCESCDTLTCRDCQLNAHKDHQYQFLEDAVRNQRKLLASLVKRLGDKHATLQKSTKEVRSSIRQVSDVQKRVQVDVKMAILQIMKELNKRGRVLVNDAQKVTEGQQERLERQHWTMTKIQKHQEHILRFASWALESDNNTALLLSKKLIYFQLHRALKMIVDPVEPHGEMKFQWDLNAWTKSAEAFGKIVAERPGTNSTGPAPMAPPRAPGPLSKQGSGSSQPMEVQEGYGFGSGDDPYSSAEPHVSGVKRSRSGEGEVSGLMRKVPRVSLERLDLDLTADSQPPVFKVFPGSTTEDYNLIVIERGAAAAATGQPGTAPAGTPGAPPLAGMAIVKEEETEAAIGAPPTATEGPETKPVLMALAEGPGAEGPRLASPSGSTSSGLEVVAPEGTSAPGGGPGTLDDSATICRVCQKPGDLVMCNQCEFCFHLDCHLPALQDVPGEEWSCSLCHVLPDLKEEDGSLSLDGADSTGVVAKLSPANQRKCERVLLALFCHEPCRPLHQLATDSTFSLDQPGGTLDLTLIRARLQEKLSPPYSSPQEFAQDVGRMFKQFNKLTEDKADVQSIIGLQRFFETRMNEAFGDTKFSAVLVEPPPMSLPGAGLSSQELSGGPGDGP
UniProt O75592: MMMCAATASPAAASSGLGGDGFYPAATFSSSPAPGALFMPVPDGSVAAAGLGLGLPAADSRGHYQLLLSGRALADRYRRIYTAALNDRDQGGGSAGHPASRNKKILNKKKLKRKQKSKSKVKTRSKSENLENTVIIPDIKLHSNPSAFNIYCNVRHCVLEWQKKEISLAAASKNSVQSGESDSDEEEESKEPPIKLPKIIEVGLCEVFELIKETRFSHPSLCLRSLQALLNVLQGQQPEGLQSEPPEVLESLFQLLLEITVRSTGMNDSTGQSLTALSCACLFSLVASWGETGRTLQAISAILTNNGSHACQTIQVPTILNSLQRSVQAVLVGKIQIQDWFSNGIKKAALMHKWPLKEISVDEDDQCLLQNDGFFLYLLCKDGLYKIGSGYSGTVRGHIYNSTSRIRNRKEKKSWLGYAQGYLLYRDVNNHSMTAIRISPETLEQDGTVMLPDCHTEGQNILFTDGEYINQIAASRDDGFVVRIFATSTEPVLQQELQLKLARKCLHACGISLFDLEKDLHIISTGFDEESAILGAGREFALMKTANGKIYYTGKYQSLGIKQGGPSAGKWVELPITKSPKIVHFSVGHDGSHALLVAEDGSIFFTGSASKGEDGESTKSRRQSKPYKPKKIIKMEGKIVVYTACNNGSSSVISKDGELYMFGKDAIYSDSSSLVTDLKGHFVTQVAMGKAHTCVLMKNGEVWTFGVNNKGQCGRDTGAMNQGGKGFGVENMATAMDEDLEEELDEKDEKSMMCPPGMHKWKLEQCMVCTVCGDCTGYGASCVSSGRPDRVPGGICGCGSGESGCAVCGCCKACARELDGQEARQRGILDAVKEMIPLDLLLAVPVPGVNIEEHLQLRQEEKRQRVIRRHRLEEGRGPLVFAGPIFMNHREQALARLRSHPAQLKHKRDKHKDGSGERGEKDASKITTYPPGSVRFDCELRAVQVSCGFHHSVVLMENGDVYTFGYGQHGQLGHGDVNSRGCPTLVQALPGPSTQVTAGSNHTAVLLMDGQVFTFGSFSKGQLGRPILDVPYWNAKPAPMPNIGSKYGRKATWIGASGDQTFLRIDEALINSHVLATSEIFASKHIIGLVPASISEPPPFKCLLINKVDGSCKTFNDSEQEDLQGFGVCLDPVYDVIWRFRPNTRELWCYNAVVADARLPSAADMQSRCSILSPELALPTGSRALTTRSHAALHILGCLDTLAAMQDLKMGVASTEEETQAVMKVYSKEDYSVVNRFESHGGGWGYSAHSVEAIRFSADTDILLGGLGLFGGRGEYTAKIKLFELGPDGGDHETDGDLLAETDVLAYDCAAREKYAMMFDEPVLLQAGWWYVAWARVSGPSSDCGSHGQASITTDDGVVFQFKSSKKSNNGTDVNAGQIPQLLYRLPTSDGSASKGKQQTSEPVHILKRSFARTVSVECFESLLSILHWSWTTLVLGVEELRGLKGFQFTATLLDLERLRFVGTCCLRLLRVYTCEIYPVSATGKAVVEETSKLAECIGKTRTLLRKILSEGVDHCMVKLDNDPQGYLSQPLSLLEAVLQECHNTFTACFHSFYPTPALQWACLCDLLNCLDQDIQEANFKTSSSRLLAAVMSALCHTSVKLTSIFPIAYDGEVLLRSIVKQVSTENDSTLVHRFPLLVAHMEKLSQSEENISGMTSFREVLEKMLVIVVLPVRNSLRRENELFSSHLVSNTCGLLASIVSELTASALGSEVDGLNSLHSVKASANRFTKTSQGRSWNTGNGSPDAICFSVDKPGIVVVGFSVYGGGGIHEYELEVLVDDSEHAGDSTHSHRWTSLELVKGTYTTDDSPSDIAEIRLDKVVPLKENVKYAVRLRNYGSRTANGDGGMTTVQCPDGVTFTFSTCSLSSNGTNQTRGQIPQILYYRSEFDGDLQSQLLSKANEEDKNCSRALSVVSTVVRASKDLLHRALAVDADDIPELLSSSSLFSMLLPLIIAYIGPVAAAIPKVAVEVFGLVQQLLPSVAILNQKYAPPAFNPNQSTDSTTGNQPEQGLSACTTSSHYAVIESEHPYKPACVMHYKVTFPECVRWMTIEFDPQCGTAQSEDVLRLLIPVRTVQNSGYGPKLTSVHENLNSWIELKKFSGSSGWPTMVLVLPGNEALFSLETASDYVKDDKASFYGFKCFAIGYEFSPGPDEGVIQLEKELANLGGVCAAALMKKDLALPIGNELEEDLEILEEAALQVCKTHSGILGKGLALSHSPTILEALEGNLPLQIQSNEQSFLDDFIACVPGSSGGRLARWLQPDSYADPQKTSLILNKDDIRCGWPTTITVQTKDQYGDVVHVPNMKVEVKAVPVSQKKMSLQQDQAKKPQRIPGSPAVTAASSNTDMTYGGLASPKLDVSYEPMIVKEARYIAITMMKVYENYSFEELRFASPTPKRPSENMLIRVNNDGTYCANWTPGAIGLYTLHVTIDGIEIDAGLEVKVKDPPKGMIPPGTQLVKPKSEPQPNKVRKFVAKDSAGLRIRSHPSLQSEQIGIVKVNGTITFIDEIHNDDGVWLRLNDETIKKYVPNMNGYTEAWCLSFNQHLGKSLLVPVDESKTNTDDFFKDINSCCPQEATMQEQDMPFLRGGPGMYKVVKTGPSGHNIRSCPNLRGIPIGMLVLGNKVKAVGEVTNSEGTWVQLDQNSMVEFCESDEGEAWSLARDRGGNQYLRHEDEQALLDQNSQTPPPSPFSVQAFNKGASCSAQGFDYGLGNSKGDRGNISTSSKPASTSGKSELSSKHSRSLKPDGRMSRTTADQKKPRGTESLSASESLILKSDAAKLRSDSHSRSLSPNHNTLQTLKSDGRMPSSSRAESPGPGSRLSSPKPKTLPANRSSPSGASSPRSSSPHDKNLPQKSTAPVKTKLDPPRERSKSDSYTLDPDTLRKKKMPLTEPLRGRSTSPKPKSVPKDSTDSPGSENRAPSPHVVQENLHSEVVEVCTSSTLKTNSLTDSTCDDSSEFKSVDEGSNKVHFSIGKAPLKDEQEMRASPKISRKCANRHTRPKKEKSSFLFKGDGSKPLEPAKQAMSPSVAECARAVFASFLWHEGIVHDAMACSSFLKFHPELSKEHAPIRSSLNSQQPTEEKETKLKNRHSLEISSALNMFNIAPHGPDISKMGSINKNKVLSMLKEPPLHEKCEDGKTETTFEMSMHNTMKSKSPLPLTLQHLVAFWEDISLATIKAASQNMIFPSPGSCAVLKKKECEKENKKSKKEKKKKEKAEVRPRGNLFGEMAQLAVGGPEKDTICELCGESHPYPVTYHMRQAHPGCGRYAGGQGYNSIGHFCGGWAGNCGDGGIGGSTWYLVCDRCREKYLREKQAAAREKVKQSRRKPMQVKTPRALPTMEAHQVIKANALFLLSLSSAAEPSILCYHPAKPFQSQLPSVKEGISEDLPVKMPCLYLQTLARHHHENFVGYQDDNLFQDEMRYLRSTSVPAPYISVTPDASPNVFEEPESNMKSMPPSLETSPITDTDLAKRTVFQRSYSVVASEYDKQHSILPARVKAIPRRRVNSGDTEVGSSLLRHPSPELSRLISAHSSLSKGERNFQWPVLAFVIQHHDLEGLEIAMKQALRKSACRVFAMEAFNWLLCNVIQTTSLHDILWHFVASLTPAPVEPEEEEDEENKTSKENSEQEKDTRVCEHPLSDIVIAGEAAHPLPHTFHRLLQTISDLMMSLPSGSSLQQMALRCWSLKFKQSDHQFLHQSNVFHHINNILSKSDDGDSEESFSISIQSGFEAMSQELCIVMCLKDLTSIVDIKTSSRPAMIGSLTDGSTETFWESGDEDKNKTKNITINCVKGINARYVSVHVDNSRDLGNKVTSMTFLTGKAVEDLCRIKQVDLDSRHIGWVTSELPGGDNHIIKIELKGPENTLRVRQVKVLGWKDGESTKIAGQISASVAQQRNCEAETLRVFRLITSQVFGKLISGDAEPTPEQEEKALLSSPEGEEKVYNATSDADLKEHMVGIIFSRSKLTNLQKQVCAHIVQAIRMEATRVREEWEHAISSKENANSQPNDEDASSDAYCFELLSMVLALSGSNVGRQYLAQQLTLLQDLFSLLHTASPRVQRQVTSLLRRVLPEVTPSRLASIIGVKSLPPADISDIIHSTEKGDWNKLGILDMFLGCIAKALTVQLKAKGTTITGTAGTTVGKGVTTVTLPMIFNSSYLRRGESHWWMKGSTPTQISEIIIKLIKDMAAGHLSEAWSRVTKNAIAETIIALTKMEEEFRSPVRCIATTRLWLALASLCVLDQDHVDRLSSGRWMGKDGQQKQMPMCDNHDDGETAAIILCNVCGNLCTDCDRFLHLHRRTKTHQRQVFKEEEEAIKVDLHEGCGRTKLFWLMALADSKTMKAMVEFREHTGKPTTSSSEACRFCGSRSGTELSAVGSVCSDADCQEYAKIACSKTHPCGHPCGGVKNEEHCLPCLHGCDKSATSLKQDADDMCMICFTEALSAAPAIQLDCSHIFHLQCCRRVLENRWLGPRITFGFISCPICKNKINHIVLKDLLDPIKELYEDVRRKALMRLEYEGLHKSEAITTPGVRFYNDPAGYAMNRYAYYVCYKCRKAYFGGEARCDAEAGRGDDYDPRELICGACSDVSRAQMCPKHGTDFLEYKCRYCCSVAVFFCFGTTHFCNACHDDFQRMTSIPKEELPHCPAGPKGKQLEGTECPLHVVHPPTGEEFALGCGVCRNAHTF
UniProt P55854, residues 1-92: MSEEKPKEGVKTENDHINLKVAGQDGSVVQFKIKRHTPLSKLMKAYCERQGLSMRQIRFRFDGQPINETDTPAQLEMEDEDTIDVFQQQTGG

What was measured:
HDAC7 = target: T1, HDAC7 (UniProt Q8WUI4); assay: co-IP; lysates of GSC20, in part transfected with the indicated plasmids or vectors (Figure 2B, K, N, Q; TRIM28 knock-down in Figure 2Q)
T1 sequence: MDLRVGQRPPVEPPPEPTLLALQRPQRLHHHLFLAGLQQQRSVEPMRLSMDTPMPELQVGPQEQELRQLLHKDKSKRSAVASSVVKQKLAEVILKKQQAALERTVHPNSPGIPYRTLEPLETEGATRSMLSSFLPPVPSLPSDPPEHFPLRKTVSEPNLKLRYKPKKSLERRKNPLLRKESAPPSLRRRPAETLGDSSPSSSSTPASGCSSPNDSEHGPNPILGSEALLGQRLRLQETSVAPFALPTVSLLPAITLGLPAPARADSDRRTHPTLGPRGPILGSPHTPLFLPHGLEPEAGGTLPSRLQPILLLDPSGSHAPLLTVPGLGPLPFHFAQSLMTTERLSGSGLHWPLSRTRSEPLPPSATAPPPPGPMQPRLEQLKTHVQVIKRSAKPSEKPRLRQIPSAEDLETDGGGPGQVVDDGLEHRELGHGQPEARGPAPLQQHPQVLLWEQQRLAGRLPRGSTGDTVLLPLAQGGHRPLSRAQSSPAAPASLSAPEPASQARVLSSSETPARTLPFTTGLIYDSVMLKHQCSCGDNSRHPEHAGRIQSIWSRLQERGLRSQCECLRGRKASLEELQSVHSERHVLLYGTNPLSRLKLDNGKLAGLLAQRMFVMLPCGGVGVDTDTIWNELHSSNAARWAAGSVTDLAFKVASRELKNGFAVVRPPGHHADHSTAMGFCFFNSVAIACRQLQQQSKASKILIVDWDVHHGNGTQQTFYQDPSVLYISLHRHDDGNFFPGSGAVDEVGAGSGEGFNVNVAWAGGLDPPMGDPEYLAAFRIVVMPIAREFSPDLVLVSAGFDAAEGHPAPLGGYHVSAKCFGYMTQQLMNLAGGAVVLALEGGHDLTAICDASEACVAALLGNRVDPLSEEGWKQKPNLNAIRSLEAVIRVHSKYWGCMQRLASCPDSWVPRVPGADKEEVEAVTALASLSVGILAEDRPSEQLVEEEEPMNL

ITGB1 [1] = target: ITGB1 (UniProt P05556); assay: co-IP; lysates of GSCs (Figure 4A, D, I)
ITGB1 [2] = target: ITGB1 (UniProt P05556); assay: co-IP; lysates of macrophages (Figure 5C)

Substance	binding (HDAC7)	binding (ITGB1 [1])	binding (ITGB1 [2])
TRIM28 (from UniProt Q13263 1-835) (enzyme)	binds		
MYCBP2 (from UniProt O75592 1-4678) (enzyme)	binds		
LGALS3 (from UniProt P17931 1-250) (ligand)		binds	binds
SUMO3 (from UniProt P55854 1-92)	binds		
